According to US20120214173A1, “Methods of Identifying Modulators of an Ehd Polypeptide” (priority 2007, published 2012):
These are yes or no findings as the source states them, for the method shown. Some entries that bind do so weakly or less than the wild type.

Biological target: selenomethionine-substituted EHD2 point mutant Q410A (crystallised with AMP-PNP) (mouse) (UniProt Q8BH64)
Experiment: crystal structure with AMP-PNP, 3.1 Å

B1: selenomethionine-substituted EHD2 point mutant Q410A (crystallised with AMP-PNP) (enzyme, mouse, UniProt Q8BH64 1-543, looked up)
chain: MFSWLKKGGARGQRPEAIRTVTSSLKELYRTKLLPLEEHYRFGSFHSPALEDADFDGKPMVLVAGQYSTGKTSFIQYLLEQEVPGSRVGPEPTTDCFVAVMHGETEGTVPGNALVVDPEKPFRKLNPFGNTFLNRFMCAQLPNQVLESISIIDTPGILSGAKQRVSRGYDFPAVLRWFAERVDLIILLFDAHKLEISDEFSEAIGALRGHEDKIRVVLNKADMVETQQLMRVYGALMWALGKVVGTPEVLRVYIGSFWSQPLLVPDNRRLFELEEQDLFRDIQGLPRHAALRKLNDLVKRARLVRVHAYIISYLKKEMPTVFGKENKKKQLILKLPVIFAKIQLEHHISPGDFPDCQKMQELLMAHDFTKFHSLKPKLLEALDDMLAQDIAKLMPLLRQEELESVEAGVAGGAFEGTRMGPFVERGPDEAIEDGEEGSEDDAEWVVTKDKSKYDEIFYNLAPADGKLSGSKAKTWMVGTKLPNSVLGRIWKLSDVDRDGMLDDEEFALASHLIEAKLEGHGLPTNLPRRLVPPSKRRQKGSAE
modifications: selenomethionine-substituted
Q: For B1, which binding is on record?
A: binds
